Results from the supplement of paper PMC10849652.
The list shows a part of the results.

The chains behind the UniProt entries cited, without tags or fusion partners. Where a name states a change or a piece, a line headed by the entry shows the natural chain unless it says otherwise.
UniProt Q92979: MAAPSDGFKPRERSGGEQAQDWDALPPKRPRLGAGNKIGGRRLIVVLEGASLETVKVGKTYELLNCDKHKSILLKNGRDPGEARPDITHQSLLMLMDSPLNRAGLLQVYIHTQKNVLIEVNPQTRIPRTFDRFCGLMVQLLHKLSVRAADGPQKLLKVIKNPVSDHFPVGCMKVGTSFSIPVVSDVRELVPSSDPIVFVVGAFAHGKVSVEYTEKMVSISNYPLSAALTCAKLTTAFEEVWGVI
UniProt Q14240, whole entry, looked up: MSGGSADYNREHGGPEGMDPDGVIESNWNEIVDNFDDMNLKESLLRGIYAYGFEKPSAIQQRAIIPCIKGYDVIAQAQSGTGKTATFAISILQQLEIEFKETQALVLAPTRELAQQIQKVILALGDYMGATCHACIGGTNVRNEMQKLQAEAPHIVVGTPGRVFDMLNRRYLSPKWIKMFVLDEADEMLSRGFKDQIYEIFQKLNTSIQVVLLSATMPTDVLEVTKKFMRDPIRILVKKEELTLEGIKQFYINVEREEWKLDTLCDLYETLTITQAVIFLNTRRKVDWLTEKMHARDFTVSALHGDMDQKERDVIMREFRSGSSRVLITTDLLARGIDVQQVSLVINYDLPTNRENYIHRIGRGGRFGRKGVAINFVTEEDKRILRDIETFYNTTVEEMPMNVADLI
UniProt Q9NPA8: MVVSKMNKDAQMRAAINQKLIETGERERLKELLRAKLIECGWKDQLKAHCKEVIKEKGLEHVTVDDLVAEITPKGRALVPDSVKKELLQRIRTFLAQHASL
UniProt P05198, whole entry, looked up: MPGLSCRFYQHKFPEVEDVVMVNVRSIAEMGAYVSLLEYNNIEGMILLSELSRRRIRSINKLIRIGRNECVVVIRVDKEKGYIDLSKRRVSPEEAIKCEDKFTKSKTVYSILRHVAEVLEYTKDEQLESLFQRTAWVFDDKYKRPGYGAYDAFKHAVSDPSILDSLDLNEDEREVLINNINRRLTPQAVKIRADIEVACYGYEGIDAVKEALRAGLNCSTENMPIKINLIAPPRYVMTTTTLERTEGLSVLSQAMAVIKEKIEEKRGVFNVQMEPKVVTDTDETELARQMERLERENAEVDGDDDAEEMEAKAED
UniProt Q8N9N8: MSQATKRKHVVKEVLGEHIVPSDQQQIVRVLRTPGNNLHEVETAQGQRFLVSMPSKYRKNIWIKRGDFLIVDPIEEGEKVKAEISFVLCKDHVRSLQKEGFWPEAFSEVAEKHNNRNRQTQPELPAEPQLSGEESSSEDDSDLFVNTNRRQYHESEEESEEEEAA
UniProt Q9P2K8: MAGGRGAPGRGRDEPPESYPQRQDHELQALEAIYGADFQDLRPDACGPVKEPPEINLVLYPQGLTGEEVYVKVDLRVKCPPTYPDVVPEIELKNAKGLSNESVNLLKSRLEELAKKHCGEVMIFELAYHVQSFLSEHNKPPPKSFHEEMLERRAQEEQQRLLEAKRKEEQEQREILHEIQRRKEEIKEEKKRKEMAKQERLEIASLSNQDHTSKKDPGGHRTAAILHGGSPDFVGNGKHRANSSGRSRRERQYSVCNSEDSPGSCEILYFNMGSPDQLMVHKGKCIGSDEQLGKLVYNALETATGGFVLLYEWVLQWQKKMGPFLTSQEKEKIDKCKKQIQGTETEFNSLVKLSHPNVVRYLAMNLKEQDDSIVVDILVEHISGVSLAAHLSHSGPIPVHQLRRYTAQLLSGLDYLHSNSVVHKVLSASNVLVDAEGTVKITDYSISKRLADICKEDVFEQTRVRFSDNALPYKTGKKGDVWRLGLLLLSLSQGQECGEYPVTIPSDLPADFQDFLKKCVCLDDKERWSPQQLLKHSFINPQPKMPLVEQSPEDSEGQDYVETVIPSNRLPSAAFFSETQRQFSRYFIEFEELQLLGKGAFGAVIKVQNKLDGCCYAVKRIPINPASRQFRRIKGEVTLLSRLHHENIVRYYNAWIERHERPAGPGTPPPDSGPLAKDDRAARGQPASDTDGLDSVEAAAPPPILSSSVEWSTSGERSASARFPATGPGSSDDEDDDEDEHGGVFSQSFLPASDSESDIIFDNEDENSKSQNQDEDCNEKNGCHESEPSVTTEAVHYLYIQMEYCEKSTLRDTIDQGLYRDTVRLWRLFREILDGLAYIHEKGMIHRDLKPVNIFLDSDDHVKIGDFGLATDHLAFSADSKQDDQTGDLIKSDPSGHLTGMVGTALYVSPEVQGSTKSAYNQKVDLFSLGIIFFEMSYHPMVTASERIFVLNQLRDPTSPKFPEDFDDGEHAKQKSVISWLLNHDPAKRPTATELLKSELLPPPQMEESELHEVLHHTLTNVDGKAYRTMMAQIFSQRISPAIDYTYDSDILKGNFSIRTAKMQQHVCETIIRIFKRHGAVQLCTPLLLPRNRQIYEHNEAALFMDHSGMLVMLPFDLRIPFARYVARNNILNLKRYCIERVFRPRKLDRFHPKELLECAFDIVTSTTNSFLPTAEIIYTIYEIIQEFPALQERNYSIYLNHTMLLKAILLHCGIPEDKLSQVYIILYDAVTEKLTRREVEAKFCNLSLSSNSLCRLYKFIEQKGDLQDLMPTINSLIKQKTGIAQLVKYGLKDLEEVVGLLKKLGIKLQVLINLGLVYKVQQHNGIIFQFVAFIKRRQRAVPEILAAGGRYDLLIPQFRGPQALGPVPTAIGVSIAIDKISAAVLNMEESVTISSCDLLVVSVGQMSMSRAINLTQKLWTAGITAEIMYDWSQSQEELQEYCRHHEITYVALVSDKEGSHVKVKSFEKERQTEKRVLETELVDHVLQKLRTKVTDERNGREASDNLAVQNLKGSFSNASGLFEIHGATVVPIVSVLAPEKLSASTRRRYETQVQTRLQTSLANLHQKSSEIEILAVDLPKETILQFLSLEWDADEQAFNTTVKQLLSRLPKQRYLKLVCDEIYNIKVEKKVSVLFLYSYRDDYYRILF
UniProt P57772: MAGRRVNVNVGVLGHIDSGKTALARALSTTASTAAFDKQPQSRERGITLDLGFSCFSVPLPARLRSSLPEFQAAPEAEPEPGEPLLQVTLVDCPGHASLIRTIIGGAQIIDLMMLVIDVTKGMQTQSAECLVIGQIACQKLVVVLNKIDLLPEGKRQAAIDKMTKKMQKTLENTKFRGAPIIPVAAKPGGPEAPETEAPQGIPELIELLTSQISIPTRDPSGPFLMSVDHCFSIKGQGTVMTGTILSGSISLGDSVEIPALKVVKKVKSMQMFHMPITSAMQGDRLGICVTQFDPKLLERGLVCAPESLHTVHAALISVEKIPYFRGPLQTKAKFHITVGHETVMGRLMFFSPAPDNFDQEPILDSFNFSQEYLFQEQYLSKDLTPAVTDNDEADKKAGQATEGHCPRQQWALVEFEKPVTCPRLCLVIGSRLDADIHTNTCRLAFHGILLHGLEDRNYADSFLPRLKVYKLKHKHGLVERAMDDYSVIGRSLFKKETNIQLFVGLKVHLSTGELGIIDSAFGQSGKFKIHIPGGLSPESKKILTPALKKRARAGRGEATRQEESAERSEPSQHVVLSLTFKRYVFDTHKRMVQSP
UniProt P41567, whole entry, looked up: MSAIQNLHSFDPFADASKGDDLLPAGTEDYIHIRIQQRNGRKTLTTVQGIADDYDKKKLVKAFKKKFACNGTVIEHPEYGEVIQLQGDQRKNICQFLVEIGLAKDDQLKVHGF
UniProt P78344: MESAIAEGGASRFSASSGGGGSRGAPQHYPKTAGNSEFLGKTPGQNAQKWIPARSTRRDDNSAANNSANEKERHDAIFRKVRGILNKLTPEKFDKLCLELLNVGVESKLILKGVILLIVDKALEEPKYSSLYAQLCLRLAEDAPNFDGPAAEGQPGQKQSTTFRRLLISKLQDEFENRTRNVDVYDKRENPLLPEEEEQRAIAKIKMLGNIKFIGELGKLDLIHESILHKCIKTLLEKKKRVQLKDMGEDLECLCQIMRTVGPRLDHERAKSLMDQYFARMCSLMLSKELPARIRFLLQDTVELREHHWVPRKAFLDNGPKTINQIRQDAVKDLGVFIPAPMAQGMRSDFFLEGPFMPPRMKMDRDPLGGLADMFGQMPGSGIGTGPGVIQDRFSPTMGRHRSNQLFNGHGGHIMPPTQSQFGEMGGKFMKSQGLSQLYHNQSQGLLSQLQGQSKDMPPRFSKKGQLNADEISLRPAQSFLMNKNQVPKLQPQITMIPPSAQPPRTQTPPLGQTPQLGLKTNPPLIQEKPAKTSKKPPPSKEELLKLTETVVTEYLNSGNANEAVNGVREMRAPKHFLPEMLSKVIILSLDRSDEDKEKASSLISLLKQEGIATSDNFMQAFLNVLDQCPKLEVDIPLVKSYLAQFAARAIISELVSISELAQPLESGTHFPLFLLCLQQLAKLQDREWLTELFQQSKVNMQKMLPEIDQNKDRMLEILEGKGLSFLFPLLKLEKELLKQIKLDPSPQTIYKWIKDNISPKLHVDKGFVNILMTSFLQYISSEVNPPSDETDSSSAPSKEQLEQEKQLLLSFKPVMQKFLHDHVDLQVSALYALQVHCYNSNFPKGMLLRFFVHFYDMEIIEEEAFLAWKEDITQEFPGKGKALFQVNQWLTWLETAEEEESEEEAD
UniProt Q14249: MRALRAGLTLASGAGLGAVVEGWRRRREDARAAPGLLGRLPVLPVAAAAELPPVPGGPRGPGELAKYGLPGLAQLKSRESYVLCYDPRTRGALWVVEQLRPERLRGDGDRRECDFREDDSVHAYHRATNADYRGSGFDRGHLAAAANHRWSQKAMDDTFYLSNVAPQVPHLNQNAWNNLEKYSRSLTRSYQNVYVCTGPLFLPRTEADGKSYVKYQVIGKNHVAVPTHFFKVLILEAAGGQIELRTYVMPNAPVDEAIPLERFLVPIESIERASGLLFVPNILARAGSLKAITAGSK
UniProt Q9NPA0: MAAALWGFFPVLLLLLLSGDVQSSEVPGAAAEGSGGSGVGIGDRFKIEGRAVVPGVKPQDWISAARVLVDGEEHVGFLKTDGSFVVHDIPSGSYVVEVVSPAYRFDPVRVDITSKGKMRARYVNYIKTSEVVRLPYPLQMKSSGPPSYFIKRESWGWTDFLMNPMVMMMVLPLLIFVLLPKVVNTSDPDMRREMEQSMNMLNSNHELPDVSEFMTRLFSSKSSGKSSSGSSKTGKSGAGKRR
UniProt P13929, whole entry, looked up: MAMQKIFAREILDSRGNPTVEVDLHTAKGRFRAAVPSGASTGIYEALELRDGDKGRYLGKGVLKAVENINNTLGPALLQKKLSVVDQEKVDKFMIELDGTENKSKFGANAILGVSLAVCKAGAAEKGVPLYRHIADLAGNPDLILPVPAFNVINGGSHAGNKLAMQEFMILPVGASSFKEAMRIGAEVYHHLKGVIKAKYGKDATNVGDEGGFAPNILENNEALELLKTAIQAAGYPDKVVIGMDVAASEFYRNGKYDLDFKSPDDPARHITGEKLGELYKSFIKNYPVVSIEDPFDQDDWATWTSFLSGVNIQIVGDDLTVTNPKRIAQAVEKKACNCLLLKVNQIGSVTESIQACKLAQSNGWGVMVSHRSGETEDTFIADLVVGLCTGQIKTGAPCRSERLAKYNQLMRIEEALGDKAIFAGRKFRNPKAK
UniProt Q9NRA8: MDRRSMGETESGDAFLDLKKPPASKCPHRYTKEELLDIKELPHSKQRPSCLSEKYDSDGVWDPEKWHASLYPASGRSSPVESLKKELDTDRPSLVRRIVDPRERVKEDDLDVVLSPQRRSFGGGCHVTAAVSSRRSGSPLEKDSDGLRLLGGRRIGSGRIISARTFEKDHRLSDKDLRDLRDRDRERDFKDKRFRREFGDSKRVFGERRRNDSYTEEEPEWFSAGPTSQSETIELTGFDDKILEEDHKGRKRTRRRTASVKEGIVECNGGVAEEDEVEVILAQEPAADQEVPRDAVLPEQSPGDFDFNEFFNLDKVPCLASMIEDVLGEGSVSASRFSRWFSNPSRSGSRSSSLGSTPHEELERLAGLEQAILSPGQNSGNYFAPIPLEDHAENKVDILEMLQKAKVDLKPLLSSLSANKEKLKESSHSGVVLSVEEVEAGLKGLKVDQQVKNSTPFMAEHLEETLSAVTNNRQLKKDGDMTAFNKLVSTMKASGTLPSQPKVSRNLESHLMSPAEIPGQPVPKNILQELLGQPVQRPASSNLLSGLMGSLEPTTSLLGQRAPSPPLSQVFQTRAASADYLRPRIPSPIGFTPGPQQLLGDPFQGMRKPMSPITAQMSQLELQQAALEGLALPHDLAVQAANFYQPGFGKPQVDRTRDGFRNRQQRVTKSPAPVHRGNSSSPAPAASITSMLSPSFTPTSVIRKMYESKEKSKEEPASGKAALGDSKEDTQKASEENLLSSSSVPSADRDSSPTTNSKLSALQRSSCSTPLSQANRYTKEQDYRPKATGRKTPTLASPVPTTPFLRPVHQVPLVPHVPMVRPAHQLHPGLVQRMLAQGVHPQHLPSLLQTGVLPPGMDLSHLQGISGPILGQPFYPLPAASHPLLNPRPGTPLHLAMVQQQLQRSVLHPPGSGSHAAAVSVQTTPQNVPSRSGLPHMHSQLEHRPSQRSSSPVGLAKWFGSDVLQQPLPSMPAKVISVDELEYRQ

Assays:
Test in all cases: log2 fold change, soluble protein after heating vs DMSO (PISA); higher = thermal stabilisation; K562 cells, 10 uM, 30 min; active = over 0.2 and 3.5 SD of the protein, either way, in both replicates (recomputed)
saracatinib = compound: CN1CCN(CCOc2cc(OC3CCOCC3)c3c(Nc4c(Cl)ccc5c4OCO5)ncnc3c2)CC1 [saracatinib]
Outline: (§1)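 Thermal stability values are relative to control samples and come from duplicates. They are expressed as log2 fold changes. For measurement, K562 cells (2×10^6 cells/mL) received 10 μM compound for 30 min, and aliquots were heated for 3 min over 48°C-58°C, pooled, and extracted at 4°C in PBS with 0.5% NP-40. Soluble protein, the supernatant after 21,000xg for 90 min, was quantified by TMTpro 16plex LC-MS/MS with equalised channel sums.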

sotrastaurin = compound: CN1CCN(c2nc(C3=C(c4c[nH]c5ccccc45)C(=O)NC3=O)c3ccccc3n2)CC1 [sotrastaurin]
Outline: as §1

alvocidib = compound: CN1CC[C@H](c2c(O)cc(O)c3c(=O)cc(-c4ccccc4Cl)oc23)[C@H](O)C1 [alvocidib]
Outline: as §1

Tubastatin A = compound: CN1CCc2c(c3ccccc3n2Cc2ccc(C(=O)NO)cc2)C1 [Tubastatin A]
Outline: as §1

[1] = compound: CNC(=O)C1=CC=CC=C1NC2=NC(=NC=C2Cl)NC3=C(C=C(C=C3)N4CCOCC4)OC
Outline: as §1

defactinib = compound: CNC(=O)c1ccc(Nc2ncc(C(F)(F)F)c(NCc3nccnc3N(C)S(C)(=O)=O)n2)cc1 [defactinib]
Outline: as §1

rucaparib = compound: CNCc1ccc(-c2[nH]c3cc(F)cc4c3c2CCNC4=O)cc1 [rucaparib]
Outline: as §1

[2] = compound: CNc1nc(-c2ccc3c(N)n[nH]c3c2)cc(N2C[C@@H](C(=O)NC3CCCCC3)CC[C@H]2C)n1
Outline: as §1

encorafenib = compound: COC(=O)N[C@@H](C)CNc1nccc(-c2cn(C(C)C)nc2-c2cc(Cl)cc(NS(C)(=O)=O)c2F)n1 [encorafenib]
Outline: as §1

[3] = compound: COC(=O)[C@H](CCSC)NC(=O)C1=C(C=C(C=C1)NC[C@H](CS)N)C2=CC=CC=C2
Outline: as §1

Measured: log2 fold change

EMG1 (UniProt Q92979)
inactive: saracatinib 0.045 | sotrastaurin -0.03 | alvocidib 0.127 | Tubastatin A -0.022 | [1] 0.036 | defactinib 0.136 | rucaparib 0.146 | [2] -0.012 | encorafenib 0.029 | [3] -0.031

EIF3I (UniProt Q13347)
inactive: saracatinib -0.103 | sotrastaurin -0.16 | alvocidib -0.004 | Tubastatin A 0.101 | [1] -0.017 | defactinib -0.022 | rucaparib 0.213 | [2] 0.084 | encorafenib 0.127 | [3] -0.084

EML4 (UniProt Q9HC35)
inactive: saracatinib -0.08 | sotrastaurin -0.141 | alvocidib 0.112 | Tubastatin A 0.056 | [1] 0.028 | defactinib 0.131 | rucaparib 0.217 | [2] 0.155 | encorafenib 0.133 | [3] -0.091

EIF4A2 isoform 2 (UniProt Q14240)
inactive: saracatinib -0.007 | sotrastaurin -0.021 | alvocidib -0.099 | Tubastatin A 0.002 | [1] -0.006 | defactinib -0.083 | rucaparib -0.009 | [2] -0.004 | encorafenib 0.063 | [3] -0.015

ENY2 (UniProt Q9NPA8)
inactive: saracatinib 0 | sotrastaurin -0.004 | alvocidib -0.037 | Tubastatin A -0.01 | [1] -0.017 | defactinib 0.012 | rucaparib -0.034 | [2] -0.025 | encorafenib -0.074 | [3] -0.019

EEF1E1 (UniProt O43324)
inactive: saracatinib -0.048 | sotrastaurin -0.046 | alvocidib 0.039 | Tubastatin A 0.029 | [1] -0.032 | defactinib 0.068 | rucaparib 0.201 | [2] 0.062 | encorafenib 0.1 | [3] -0.073

EPB41 (UniProt P11171)
inactive: saracatinib -0.001 | sotrastaurin 0.006 | alvocidib -0.016 | Tubastatin A 0.027 | [1] 0.017 | defactinib -0.039 | rucaparib 0.051 | [2] 0.03 | encorafenib 0.028 | [3] -0.005

EIF2S1 (UniProt P05198)
inactive: saracatinib -0.024 | sotrastaurin 0.044 | alvocidib 0.061 | Tubastatin A 0.001 | [1] -0.022 | defactinib 0.103 | rucaparib 0.112 | [2] 0.012 | encorafenib 0.032 | [3] 0.02

EMC10 (UniProt Q5UCC4)
inactive: saracatinib 0.013 | sotrastaurin 0.005 | alvocidib -0.057 | Tubastatin A 0.012 | [1] -0.008 | defactinib -0.043 | rucaparib -0.012 | [2] -0.041 | encorafenib -0.106 | [3] -0.04

EIF1AD (UniProt Q8N9N8)
inactive: saracatinib 0.121 | sotrastaurin 0.007 | alvocidib 0.003 | Tubastatin A -0.011 | [1] -0.011 | defactinib -0.036 | rucaparib -0.075 | [2] 0.027 | encorafenib -0.02 | [3] -0.002

ELP2 isoform 6 (UniProt Q6IA86)
inactive: saracatinib 0.038 | sotrastaurin -0.001 | alvocidib -0.004 | Tubastatin A -0.021 | [1] 0.018 | defactinib -0.005 | rucaparib 0.019 | [2] -0.032 | encorafenib 0.02 | [3] 0.014

EIPR1 (UniProt Q53HC9)
inactive: saracatinib 0.045 | sotrastaurin -0.015 | alvocidib -0.036 | Tubastatin A -0.025 | [1] 0.022 | defactinib -0.044 | rucaparib -0.052 | [2] -0.031 | encorafenib -0.024 | [3] 0.014

EIF2AK4 (UniProt Q9P2K8)
inactive: saracatinib -0.045 | sotrastaurin -0.104 | alvocidib -0.068 | Tubastatin A -0.056 | [1] -0.218 | defactinib -0.087 | rucaparib 0.125 | [2] -0.002 | encorafenib 0.096 | [3] -0.036

EEFSEC (UniProt P57772)
inactive: saracatinib -0.05 | sotrastaurin -0.159 | alvocidib 0.008 | Tubastatin A -0.062 | [1] -0.055 | defactinib -0.034 | rucaparib 0.116 | [2] -0.017 | encorafenib -0.03 | [3] 0.005

EIF1 (UniProt P41567)
inactive: saracatinib 0.103 | sotrastaurin 0.102 | alvocidib 0.048 | Tubastatin A -0.003 | [1] 0.001 | defactinib 0.051 | rucaparib -0.035 | [2] -0.016 | encorafenib 0.044 | [3] 0.103

EIF5 (UniProt P55010)
inactive: saracatinib 0.014 | sotrastaurin -0.009 | alvocidib -0.118 | Tubastatin A -0.013 | [1] 0.039 | defactinib -0.08 | rucaparib -0.035 | [2] -0.019 | encorafenib 0.046 | [3] -0.044

ELOF1 (UniProt P60002)
inactive: saracatinib 0.094 | sotrastaurin -0.022 | alvocidib 0.06 | Tubastatin A 0.012 | [1] 0.021 | defactinib 0.225 | rucaparib 0.12 | [2] -0.123 | encorafenib -0.036 | [3] -0.031

EIF4G2 (UniProt P78344)
inactive: saracatinib -0.116 | sotrastaurin -0.222 | alvocidib 0.155 | Tubastatin A 0.066 | [1] -0.109 | defactinib 0.112 | rucaparib 0.535 | [2] 0.09 | encorafenib 0 | [3] -0.147

ELAVL1 isoform 2 (UniProt Q15717)
inactive: saracatinib -0.048 | sotrastaurin -0.001 | alvocidib 0.257 | Tubastatin A 0.024 | [1] -0.018 | defactinib 0.306 | rucaparib 0.546 | [2] -0.038 | encorafenib 0.22 | [3] 0.016

ELP3 (UniProt Q9H9T3)
inactive: saracatinib 0.037 | sotrastaurin 0.005 | alvocidib -0.003 | Tubastatin A -0.043 | [1] -0.006 | defactinib -0.035 | rucaparib -0.006 | [2] 0.03 | encorafenib 0.029 | [3] -0.015

ENDOG (UniProt Q14249)
inactive: saracatinib -0.022 | sotrastaurin -0.002 | alvocidib 0.007 | Tubastatin A 0.019 | [1] 0.02 | defactinib 0.04 | rucaparib 0.004 | [2] -0.028 | encorafenib 0.02 | [3] -0.037

EMC7 (UniProt Q9NPA0)
inactive: saracatinib -0.027 | sotrastaurin 0.033 | alvocidib -0.011 | Tubastatin A -0.014 | [1] -0.016 | defactinib 0.02 | rucaparib -0.059 | [2] 0.006 | encorafenib 0.024 | [3] -0.007

ENO1 isoform 2 (UniProt P06733)
inactive: saracatinib -0.051 | sotrastaurin -0.139 | alvocidib 0.072 | Tubastatin A 0.202 | [1] -0.087 | defactinib -0.029 | rucaparib 0.075 | [2] 0.025 | encorafenib -0.129 | [3] -0.01

Retrieved one by one from the entries so far (2):
EMC7 (UniProt Q9NPA0)
inactive: saracatinib -0.027 | sotrastaurin 0.033 | alvocidib -0.011 | Tubastatin A -0.014 | [1] -0.016 | defactinib 0.02 | rucaparib -0.059 | [2] 0.006 | encorafenib 0.024 | [3] -0.007

ELP3 (UniProt Q9H9T3)
inactive: saracatinib 0.037 | sotrastaurin 0.005 | alvocidib -0.003 | Tubastatin A -0.043 | [1] -0.006 | defactinib -0.035 | rucaparib -0.006 | [2] 0.03 | encorafenib 0.029 | [3] -0.015

Remaining list, next part

EML3 isoform 2 (UniProt Q32P44)
inactive: saracatinib -0.066 | sotrastaurin 0 | alvocidib 0.063 | Tubastatin A 0.065 | [1] -0.012 | defactinib 0.032 | rucaparib -0.194 | [2] 0.015 | encorafenib 0.05 | [3] 0.013

EIF3D (UniProt O15371)
inactive: saracatinib -0.107 | sotrastaurin -0.257 | alvocidib 0.056 | Tubastatin A 0.06 | [1] 0.128 | defactinib -0.004 | rucaparib 0.217 | [2] 0.141 | encorafenib 0.137 | [3] -0.086

ENO3 (UniProt P13929)
inactive: saracatinib 0.071 | sotrastaurin -0.058 | alvocidib -0.043 | Tubastatin A -0.009 | [1] 0.092 | defactinib 0.015 | rucaparib -0.014 | [2] -0.003 | encorafenib -0.026 | [3] 0.027

ELP1 (UniProt O95163)
inactive: saracatinib 0.002 | sotrastaurin 0.015 | alvocidib -0.002 | Tubastatin A -0.046 | [1] -0.041 | defactinib -0.021 | rucaparib 0.001 | [2] 0.003 | encorafenib 0.02 | [3] -0.018

EIF4ENIF1 isoform 3 (UniProt Q9NRA8)
inactive: saracatinib -0.034 | sotrastaurin 0.004 | alvocidib -0.065 | Tubastatin A 0.069 | [1] 0.01 | defactinib 0.036 | rucaparib -0.017 | [2] -0.013 | encorafenib -0.035 | [3] 0.001

ELP6 (UniProt Q0PNE2)
inactive: saracatinib 0.046 | sotrastaurin 0.021 | alvocidib 0.011 | Tubastatin A -0.008 | [1] 0.009 | defactinib -0.059 | rucaparib -0.011 | [2] 0.028 | encorafenib -0.005 | [3] -0.023
